Reference: the supplement of paper PMC6418307
Single values of this set are uncertain.

Test system: primary mouse cortical neurons
Assay: cell health score (luciferase spike-in reads / total reads per well) (fraction); higher = fewer cellular reads, worse cell health / toxicity
Settings: treatment time 24 h
[1] = 0.01 µM, sex of neuron culture: Female
[2] = 0.01 µM, sex of neuron culture: Male
[3] = 0.1 µM, sex of neuron culture: Female
[4] = 0.1 µM, sex of neuron culture: Male
[5] = 1 µM, sex of neuron culture: Female
[6] = 1 µM, sex of neuron culture: Male
[7] = 10 µM, sex of neuron culture: Female
[8] = 10 µM, sex of neuron culture: Male

Compound	cell health score [1]	cell health score [2]	cell health score [3]	cell health score [4]	cell health score [5]	cell health score [6]	cell health score [7]	cell health score [8]
CCNc1nc(Cl)nc(NC(C)C)n1 [Atrazine]	0.000748	0.000951	0.000951	0.000928	0.000972	0.000597	0.000991	0.000666
CCNc1nc(Cl)nc(NC(C)(C)C#N)n1 [Cyanazine]	0.000606	0.00061	0.000878	0.000781	0.00106	0.000597	0.00137	0.000492
CC[C@]1(O)C[C@H]2CN(CCc3c([nH]c4ccccc34)[C@@](C(=O)OC)(c3cc4c(cc3OC)N(C=O)[C@H]3[C@@](O)(C(=O)OC)[C@H](OC(C)=O)[C@]5(CC)C=CCN6CC[C@]43[C@@H]65)C2)C1 [Vincristine]	0.0109	0.0107	0.0146	0.0078	0.00573	0.00959	0.00773	0.00409
Oc1nc(-c2ccc(C(F)(F)F)cc2)nc2c1CSCC2 [XAV939]	0.000602	0.000779	0.00161	0.0011	0.00144	0.000899	0.00125	0.000535
CCC(C)n1c(=O)[nH]c(C)c(Br)c1=O (stereo not given) [Bromacil]	0.000514	0.000552	0.00132	0.00109	0.000978	0.000787	0.00116	0.000513
CCOP(=S)(OCC)Oc1ccc2c(C)c(Cl)c(=O)oc2c1 [Coumaphos]	0.000737	0.000584	0.00182	0.000927	0.000858	0.000474	0.00128	0.000559
Clc1nc(Cl)nc(Nc2ccccc2Cl)n1 [Anilazine]	0.000487	0.000676	0.000946	0.000982	0.000592	0.000804	0.000683	0.000786
NC(=O)c1nc(Nc2ccccc2)sc1NC(=O)C1CCCCC1 [UNC3230]	0.000521	0.00085	0.000519	0.000585	0.000696	0.000437	0.00104	0.000482
COC(=O)c1ccccc1C(=O)O [Monomethyl phthalate]	0.000456	0.000698	0.000689	0.000727	0.000704	0.000675	0.000836	0.000452
CCSC(=O)N1CCCCCC1 [Molinate]	0.000578	0.000574	0.00126	0.000703	0.00118	0.000547	0.000952	0.000424
CC(C)N(C(=O)COc1nnc(C(F)(F)F)s1)c1ccc(F)cc1 [Flufenacet]	0.000459	0.000651	0.000701	0.000837	0.000839	0.000648	0.000866	0.000623
COP(=O)(NC(C)=O)SC (stereo not given) [Acephate]	0.000898	0.000587	0.000676	0.000796	0.000781	0.000657	0.00118	0.000503
CN1CC[C@H](c2c(O)cc(O)c3c(=O)cc(-c4ccccc4Cl)oc23)[C@H](O)C1 [Flavopiridol]	0.000534	0.000709	0.00198	0.000866	0.00853	0.00515	0.00809	0.00681
[OH-].c1cc[c]([Sn+]([c]2ccccc2)[c]2ccccc2)cc1 [Triphenyltin hydroxide]	0.00264	0.00612	0.0021	0.00348	0.0293	0.0132	0.226	–
CCNc1nc(Cl)nc(NCC)n1 [Simazine]	0.000441	0.000638	0.00127	0.00094	0.00109	0.000591	0.00123	0.000928
O=c1c(-c2ccc(O)cc2)coc2cc(O)cc(O)c12 [Genistein]	0.000598	0.00067	0.000555	0.000872	0.000982	0.000711	0.00136	0.000847
COc1cccc(C(=O)NN(C(=O)c2cc(C)cc(C)c2)C(C)(C)C)c1C [Methoxyfenozide]	0.000438	0.000695	0.000943	0.000946	0.000707	0.00059	0.00143	0.00047
COP(=O)(OC)C(O)C(Cl)(Cl)Cl (stereo not given) [Trichlorfon]	0.000491	0.000697	0.000826	0.00095	0.000978	0.000773	0.00138	0.000674
CSc1nnc(C(C)(C)C)c(=O)n1N [Metribuzin]	0.000479	0.000744	0.00142	0.00124	0.000911	0.000581	0.000984	0.000618
CCOP(=O)(SC(C)CC)N1CCSC1=O (stereo not given) [Fosthiazate]	0.00102	0.000721	0.000978	0.00145	0.000678	0.00102	0.000704	0.000459
C#CCOS(=O)OC1CCCCC1Oc1ccc(C(C)(C)C)cc1 (stereo not given) [Propargite]	0.000369	0.000909	0.00132	0.00148	0.00101	0.00151	0.00744	0.00533
CC1COC(Cn2cncn2)(c2ccc(Oc3ccc(Cl)cc3)cc2Cl)O1 (stereo not given) [Difenoconazole]	0.000603	0.000598	0.000733	0.000787	0.00063	0.000583	0.00107	0.000854
CCCCOCN(C(=O)CCl)c1c(CC)cccc1CC [Butachlor]	0.00063	0.00103	0.000774	0.000892	0.00108	0.000773	0.00146	0.000557
O=C(O)CNCP(=O)(O)O [Glyphosate]	0.000474	0.000684	0.000652	0.000713	0.000725	0.000317	0.000712	0.000481
COP(=S)(OC)Oc1ccc(SC)c(C)c1 [Fenthion]	0.000658	0.00107	0.00167	0.000867	0.00103	0.000617	0.00108	0.000598
C#CCOC(=O)[C@@H](C)Oc1ccc(Oc2ncc(Cl)cc2F)cc1 [Clodinafop-propargyl]	0.000507	0.000679	0.00109	0.00071	0.000727	0.000936	0.00101	0.000631
COc1ccc(C(c2ccc(OC)cc2)C(Cl)(Cl)Cl)cc1 [Methoxychlor]	0.000409	0.000911	0.000709	0.000898	0.000722	0.000806	0.001	0.000706

Single entries from the results shown.
`C#CCOC(=O)[C@@H](C)Oc1ccc(Oc2ncc(Cl)cc2F)cc1` [Clodinafop-propargyl] – cell health score [5]: 0.000727
`CCOP(=S)(OCC)Oc1ccc2c(C)c(Cl)c(=O)oc2c1` [Coumaphos] – cell health score [1]: 0.000737
